Chains of the proteins cited; added tags and fusions are not shown.
UniProt P35462, whole entry, looked up: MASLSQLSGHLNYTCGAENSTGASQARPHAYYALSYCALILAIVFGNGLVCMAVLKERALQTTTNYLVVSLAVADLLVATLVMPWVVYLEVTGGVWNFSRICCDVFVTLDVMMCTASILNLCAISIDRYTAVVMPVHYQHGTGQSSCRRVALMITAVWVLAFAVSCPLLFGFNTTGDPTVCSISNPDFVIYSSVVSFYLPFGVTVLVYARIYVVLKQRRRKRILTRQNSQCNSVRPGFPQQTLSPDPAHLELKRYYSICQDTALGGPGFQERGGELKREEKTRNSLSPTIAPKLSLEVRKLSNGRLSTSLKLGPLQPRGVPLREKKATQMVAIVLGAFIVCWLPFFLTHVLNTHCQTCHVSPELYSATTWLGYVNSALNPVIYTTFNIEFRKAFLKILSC

About 9,100 (2.5%) of roughly 360,000 compounds were called active. Inconclusive results, whose numbers are uncertain, are shown with a selection of clear calls. Rule as the data show it: active = max response below about -50%; inconclusive = no clear call, values can overlap the other calls; inactive = above that.
These compounds were tested against D(3) dopamine receptor (Homo sapiens) (UniProt P35462) (assay: qHTS of D3 Dopamine Receptor Antagonist: qHTS). Settings: D3R cells, DiscoveRx beta-arrestin luminescence, antagonist mode; stronger effect = lower value.
Method in brief: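 Cells plated overnight at 1500 cells/well, then exposed to library compounds with dopamine controls for 90 minutes at 37 degrees C. DiscoveRx reagent added for 30–60 minutes at room temperature; luminescence read, quantitative HTS format.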
In the case of `CCCN1CCC(N(CCc2ccccc2)Cc2ccccc2)CC1`, the max response, negative = inhibition is reported as active: -96.6%.
For `Cc1ccc2occ(/C=C/C(=O)c3ccccc3O)c(=O)c2c1`, the max response, negative = inhibition was inconclusive: -35.9%.
In the case of `O=C(Oc1ccc2ccccc2c1Br)N1CCCCCC1`, the max response, negative = inhibition is reported as inconclusive: -39.4%.
`O=C(COc1ccccc1Cl)Nc1ccc2c(c1)OCO2` was tested, and the max response, negative = inhibition was inconclusive: -32%.
For `Cc1ccccc1COn1nnc2ccc(S(=O)(=O)N3CCOCC3)cc21`, the max response, negative = inhibition was active: -51.5%.
With `CCc1nc(NCc2ccccn2)c2oc3ccccc3c2n1` the max response, negative = inhibition was inactive: 24.8%.
With `Cc1ccc(S(=O)(=O)N2CCN(CC(=O)Nc3ccc(N4CCOCC4)cc3)CC2)cc1C` the max response, negative = inhibition was active: -92.7%.
With `CC(=O)c1cccc(NC(=O)CSc2ccc(-c3ccco3)nn2)c1` the max response, negative = inhibition was inactive: 4.85%.
For `CC(CCc1ccccc1)N1CCN(Cc2ccccc2)CC1` (centres undefined), the max response, negative = inhibition was active: -87.1%.
With `COc1ccc(CN2CCN(c3ncnc4scc(-c5ccc(F)cc5)c34)CC2)cc1` the max response, negative = inhibition was inconclusive: -44%.
In the case of `Cc1ccc(-n2nnc3ccccc3c2=O)cc1C`, the max response, negative = inhibition is reported as inactive: 6.07%.
`CCCOc1ccc(CCc2n[nH]c(=S)n2Cc2ccccc2)cc1` was tested, and the max response, negative = inhibition was active: -54.6%.
In the case of `Cc1c(CN2CCC(CO)(Cc3ccccc3)CC2)c2ccccc2n1C`, the max response, negative = inhibition is reported as inconclusive: -43.6%.
In the case of `Cc1nc2ccc(NC(=O)c3ccc(Cl)s3)cc2s1`, the max response, negative = inhibition is reported as inconclusive: -30%.
For `COc1ccc(C)cc1Nc1n[n+](-c2ccccc2)c(-c2ccc(OC)c(OC)c2OC)s1`, the max response, negative = inhibition was inconclusive: -41.1%.
In the case of `Cn1c(=O)cc(SCC(=O)N2CCN(c3ccccc3)CC2)c2ccccc21`, the max response, negative = inhibition is reported as inactive: 1.92%.
With `O=c1[nH][nH]c2c1[C@H](c1ccc(F)cc1)O[C@H](CCc1ccccc1)C2` the max response, negative = inhibition was inactive: -21.4%.
For `O=c1[nH]c2c(cnn2-c2ccc(Cl)cc2)c(=O)n1-c1cccc(Cl)c1`, the max response, negative = inhibition was inconclusive: -35.5%.
For `CCC1Oc2ccc(C)cc2N(CC(=O)N(Cc2ccc(C)o2)C2CCCC2)C1=O` (centres undefined), the max response, negative = inhibition was inconclusive: -40.9%.
With `Cc1cccc(NC(=O)Cc2noc3ccccc23)c1` the max response, negative = inhibition was inconclusive: -31.5%.
For `C=CCNC(=O)CN1CCC(O)(c2ccccc2)CC1`, the max response, negative = inhibition was inconclusive: -48.9%.
`NSc1nc(N)c2nc(-c3ccccc3)c(-c3ccccc3)nc2n1` was tested, and the max response, negative = inhibition was inconclusive: -37.9%.
In the case of `COC(=O)[C@@H]1C[C@@]2(Br)c3ccccc3N(S(=O)(=O)c3ccccc3)[C@H]2N1C(=O)OC`, the max response, negative = inhibition is reported as inconclusive: -44%.
In the case of `CC(C)(C)OC(=O)NCCCCCNC(=O)c1[nH]cnc1C(=O)NC1CCN(C(=O)OC(C)(C)C)CC1`, the max response, negative = inhibition is reported as inactive: 118%.
With `CCOC(=O)C1=C(Cc2ccc(F)cc2)C(=O)c2ccccc2C1=O` the max response, negative = inhibition was active: -99.8%.
For `Cc1cc(NC(=O)CSc2nnc(CNc3ccc(F)cc3)n2C2CCCCC2)no1`, the max response, negative = inhibition was inactive: -6.23%.
With `Cc1ccc(S(=O)(=O)Nc2ccc3nc(C)oc3c2)cc1` the max response, negative = inhibition was inactive: 6.16%.
For `O=C(Cc1cccc2ccccc12)N/N=C/c1ccc(Sc2nc3ccccc3s2)o1`, the max response, negative = inhibition was inactive: -11.4%.
For `CCCS(=O)(=O)N1CCCC(C(=O)Oc2ccccc2Cl)C1` (centres undefined), the max response, negative = inhibition was inactive: 9.52%.
`Cc1cc(C)c(NC(=O)OCCN2CCOCC2)c(C)c1` was tested, and the max response, negative = inhibition was active: -59.9%.
`CSc1nc(N)nc(SCC(=O)Nc2ccc(Cl)cc2)c1C#N` was tested, and the max response, negative = inhibition was inconclusive: -34.1%.
With `Cc1ccc(CNCc2ccccc2Cl)cc1` the max response, negative = inhibition was active: -67.4%.
For `O=C(NC(c1ccccc1)c1ccsc1)C1CCN(Cc2ccc(Oc3ccccc3)cc2)CC1` (centres undefined), the max response, negative = inhibition was active: -100%.
With `Cc1ccc(-n2[nH]c(C)c(/C=N/Nc3ccc([N+](=O)[O-])cc3[N+](=O)[O-])c2=O)cc1` the max response, negative = inhibition was active: -56.5%.
`Nc1nc(CN2CCN(Cc3ccc4c(c3)OCO4)CC2)nc(Nc2ccccc2)n1` was tested, and the max response, negative = inhibition was inconclusive: -42.2%.
`CCOC(=O)c1ccc2nc(NC(=O)c3cccs3)sc2c1` was tested, and the max response, negative = inhibition was inconclusive: -37.2%.
With `O=C(CCCN1C(=O)c2ccccc2C1=O)Oc1ccc(F)cc1` the max response, negative = inhibition was inactive: 12.4%.
`CCCOc1ccc2[nH]c(C(=O)N/N=C/c3cc(OC)c(OC)c(OC)c3)cc2c1` was tested, and the max response, negative = inhibition was inactive: 42.8%.
With `COc1ccc(S(=O)(=O)NC(=O)C2(C)CCN2C(=O)C(C)(C)c2ccccc2)cc1` (centres undefined) the max response, negative = inhibition was inconclusive: -30.2%.
With `Cc1cccc(Nc2nc(-c3ccncc3)cs2)c1` the max response, negative = inhibition was inactive: 0.298%.
`O=C1OCCC1Sc1ncnc2sccc12` (centres undefined) was tested, and the max response, negative = inhibition was inconclusive: -34.4%.
With `N#C/C(=N\Nc1ccc(F)cc1)C(=N)N1CCCCCC1` the max response, negative = inhibition was inconclusive: -32.6%.
In the case of `Cc1ccc(S(=O)(=O)CC(C)N2CCOCC2)c(S(=O)(=O)CC(C)N2CCOCC2)c1` (centres undefined), the max response, negative = inhibition is reported as inactive: 9.12%.
`CN(C(=S)NC(=O)CCCOc1ccc(Cl)cc1Cl)c1ccccc1` was tested, and the max response, negative = inhibition was inactive: -21.9%.
In the case of `CCCN1C(=O)/C(=C2/C=Cc3ccccc3N2CC)SC1=S`, the max response, negative = inhibition is reported as inactive: -26%.
With `O=c1[nH]c(=S)[nH]c2c1C(c1ccc(Br)cc1)c1c([nH]c(=S)[nH]c1=O)O2` the max response, negative = inhibition was inactive: -5.39%.
In the case of `Cc1c(Cl)c([N+](=O)[O-])nn1CC(=O)NCc1ccc(Cl)cc1`, the max response, negative = inhibition is reported as inconclusive: -32.4%.
`Cc1ccc(SCCCCN2CCNCC2)cc1` was tested, and the max response, negative = inhibition was inactive: 0.601%.
For `O=C(COc1ccc(S(=O)(=O)N2CCCC2)cc1)NCc1ccco1`, the max response, negative = inhibition was inconclusive: -40.7%.
With `CC(C)C(=O)Nc1sc2c(c1-c1nc3ccccc3[nH]1)CCCC2` the max response, negative = inhibition was inconclusive: -42.5%.
In the case of `Cc1ccc(N2CC(C)Cn3c2nc2c3c(=O)[nH]c(=O)n2C)cc1C` (centres undefined), the max response, negative = inhibition is reported as inconclusive: -40.6%.
`Cc1nn(C)cc1S(=O)(=O)Nc1ccccc1Br` was tested, and the max response, negative = inhibition was inconclusive: -40.2%.
In the case of `O=C(CSc1nnnn1-c1ccc(Cl)cc1)Nc1cccnc1Cl`, the max response, negative = inhibition is reported as inactive: 31.9%.
`COCCCN(Cc1ccccn1)S(=O)(=O)Cc1ccccc1` was tested, and the max response, negative = inhibition was inconclusive: -47.2%.
`CC(Cc1ccccc1)C(=O)N(C)Cc1ccccc1` (centres undefined) was tested, and the max response, negative = inhibition was inconclusive: -41.9%.
In the case of `N#CC(C#SN)=C1CCCCC1`, the max response, negative = inhibition is reported as inconclusive: -32.8%.
`Cn1c(Nc2ccc(F)cc2)nc2cc(-c3ccsc3)sc2c1=O` was tested, and the max response, negative = inhibition was inconclusive: -43%.
With `CCOc1ccc(-c2nc(C#N)c(N3CCN(CC)CC3)o2)cc1` the max response, negative = inhibition was inconclusive: -46.1%.
With `CC(C)NC(=O)c1sc(=S)n2c1[nH]c(=O)c1ccc(C(=O)NCCc3ccc(Cl)cc3)cc12` the max response, negative = inhibition was inactive: 15.2%.
In the case of `COc1ccc(C(=O)NCC(c2ccco2)N2CCCCC2)cc1S(=O)(=O)Nc1ccc(C)cc1` (centres undefined), the max response, negative = inhibition is reported as inconclusive: -42.8%.
For `Cc1ccc([N+](=O)[O-])cc1NC(=O)CN1CCCCC1`, the max response, negative = inhibition was active: -78%.
`O=C(O)C1CC(=O)N(Cc2ccc3c(c2)OCO3)C1` (centres undefined) was tested, and the max response, negative = inhibition was active: -106%.
`CC1=CC(=O)C=CC1=Nc1ccc(N(C)C)cc1` was tested, and the max response, negative = inhibition was active: -50.7%.
With `O=c1[nH]c(SCc2cccc(Cl)c2)nc2[nH]ncc12` the max response, negative = inhibition was inactive: 6.12%.
For `CCOC(=O)c1sc(NC(=O)C(C)C)c(C#N)c1C`, the max response, negative = inhibition was inactive: -21.4%.
For `COc1ccc(C(=O)Cn2c(C(=O)/C=C/c3ccccc3)nc3ccccc32)cc1`, the max response, negative = inhibition was inconclusive: -33.4%.
With `O=C(NC(c1ccccc1)c1ccccc1)C1CCCN(S(=O)(=O)c2cnc[nH]2)C1` (centres undefined) the max response, negative = inhibition was inconclusive: -32.1%.
For `COc1cc(OC)cc(C(=O)NCc2ccc(-n3cccc3)cc2)c1`, the max response, negative = inhibition was inconclusive: -40.7%.
In the case of `CCOc1cc(C(c2c(C)[nH][nH]c2=O)c2c(C)[nH][nH]c2=O)ccc1OS(=O)(=O)c1ccc(C)cc1`, the max response, negative = inhibition is reported as inconclusive: -40.4%.
For `O=C(O)c1ccc(N=N/C(=N\Nc2ccc(C(=O)O)cc2)c2ccccc2)cc1`, the max response, negative = inhibition was active: -53.2%.
In the case of `Nc1ccc2nc(Cc3ccccc3)[nH]c2c1`, the max response, negative = inhibition is reported as inconclusive: -32.5%.
For `CC(C)C[C@@H](CNCC(=O)[C@H](Cc1c[nH]c2ccccc12)NC(=O)c1[nH]cnc1C(=O)N[C@H](CN)CC(C)C)NC(=O)c1nc[nH]c1C(=O)N[C@@H](CC(=O)O)C(=O)O`, the max response, negative = inhibition was inconclusive: -35.8%.
With `Cc1ccc(/C=N/NC(=O)CNC(=O)c2ccc(S(=O)(=O)N(C)C)cc2)cc1` the max response, negative = inhibition was inconclusive: -35.8%.
`O=C(CSc1nnc(-c2cccnc2)n1Cc1ccco1)N1c2ccccc2Sc2ccccc21` was tested, and the max response, negative = inhibition was inactive: -1.46%.
With `CCc1cc(OCCCCNCc2ccccc2)ccc1Cl` the max response, negative = inhibition was inconclusive: -39.4%.
`O=C(NCC1CCCO1)C1CCN(C(=O)c2ccc(Cl)cc2)CC1` (centres undefined) was tested, and the max response, negative = inhibition was inconclusive: -30.9%.
For `CC(=O)N1CCc2cc(Br)cc(S(=O)(=O)NCc3ccc(Cl)cc3)c21`, the max response, negative = inhibition was inconclusive: -43.3%.
For `CCc1ccc(/C=C2\CN(CC)Cc3c2nc2ccccc2c3C(=O)O)cc1`, the max response, negative = inhibition was inconclusive: -32.4%.
`O=C(Nc1ccc(C(=O)O)cc1)/C(=C\c1ccc([N+](=O)[O-])cc1)NC(=O)c1ccco1` was tested, and the max response, negative = inhibition was inactive: -1.8%.
With `Cc1cccc(Oc2sc(C(=O)c3ccccc3)c(N)c2C#N)c1C` the max response, negative = inhibition was inconclusive: -47.9%.
With `COCC(=O)c1[nH]c2ccccc2c1C` the max response, negative = inhibition was inconclusive: -33.1%.
With `CC1CN(S(=O)(=O)c2cccc(C(=O)NCC(c3cccs3)N3CCOCC3)c2)CC(C)O1` (centres undefined) the max response, negative = inhibition was inactive: -11.3%.
With `CN1CCN(c2ccc(S(=O)(=O)N3CCCCC3)cc2NC(=O)c2cccc([N+](=O)[O-])c2)CC1` the max response, negative = inhibition was inconclusive: -37.3%.
For `O=C(C1CCC(CNS(=O)(=O)c2ccccc2)CC1)N1CCOCC1` (centres undefined), the max response, negative = inhibition was inactive: 1.95%.
`Cc1ccc(SC(C)C(=O)Nc2ccccc2-c2ccccc2)cc1` (centres undefined) was tested, and the max response, negative = inhibition was inconclusive: -44.9%.
With `COc1cccc(SCc2noc(C(=O)NCCCN3CCOCC3)c2C(=O)NCCCN2CCOCC2)c1` the max response, negative = inhibition was inconclusive: -45.5%.
With `Cc1[nH]c2ccc(Br)cc2c(=O)c1CN1CCOCC1` the max response, negative = inhibition was active: -70.1%.
`COc1cccc(C2C=C(c3ccc(Br)s3)Nc3ncnn32)c1OC` (centres undefined) was tested, and the max response, negative = inhibition was inactive: -12.2%.
For `CC(C)(C)C(=O)O/N=C(\N)c1ccc(Br)cc1`, the max response, negative = inhibition was inactive: -2.61%.
% is scaled to controls: 0 for no effect and ±100 for the full control effect.
